Measured values: article PMC10786878
These are yes or no findings as the source states them, for the method shown. In cells and extracts the contact can be indirect. These calls come from enrichment with a bait or labelling near it, and not all partners need be listed.

Protein sequences, listed by entry. Tags and fused reporters are not part of them. Lines headed by an entry give the natural chain unless they say otherwise; changes in a name come on top. Residues count along the entry.
UniProt P05305: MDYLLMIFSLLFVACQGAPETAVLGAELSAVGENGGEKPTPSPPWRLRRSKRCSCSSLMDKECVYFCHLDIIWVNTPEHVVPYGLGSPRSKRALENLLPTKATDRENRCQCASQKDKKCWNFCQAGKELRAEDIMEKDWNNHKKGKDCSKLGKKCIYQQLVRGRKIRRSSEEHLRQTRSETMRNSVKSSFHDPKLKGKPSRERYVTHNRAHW
UniProt P28300: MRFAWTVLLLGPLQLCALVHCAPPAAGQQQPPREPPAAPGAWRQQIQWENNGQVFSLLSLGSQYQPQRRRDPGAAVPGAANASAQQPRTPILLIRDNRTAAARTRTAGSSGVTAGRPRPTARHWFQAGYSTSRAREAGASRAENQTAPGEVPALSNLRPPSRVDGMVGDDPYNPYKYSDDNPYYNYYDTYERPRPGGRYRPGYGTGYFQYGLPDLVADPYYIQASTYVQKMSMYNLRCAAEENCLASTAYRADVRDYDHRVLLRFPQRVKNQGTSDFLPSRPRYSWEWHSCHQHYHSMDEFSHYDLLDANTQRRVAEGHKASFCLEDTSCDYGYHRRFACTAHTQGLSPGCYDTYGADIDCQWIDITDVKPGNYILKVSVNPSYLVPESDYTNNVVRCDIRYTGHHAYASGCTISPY
UniProt P11387: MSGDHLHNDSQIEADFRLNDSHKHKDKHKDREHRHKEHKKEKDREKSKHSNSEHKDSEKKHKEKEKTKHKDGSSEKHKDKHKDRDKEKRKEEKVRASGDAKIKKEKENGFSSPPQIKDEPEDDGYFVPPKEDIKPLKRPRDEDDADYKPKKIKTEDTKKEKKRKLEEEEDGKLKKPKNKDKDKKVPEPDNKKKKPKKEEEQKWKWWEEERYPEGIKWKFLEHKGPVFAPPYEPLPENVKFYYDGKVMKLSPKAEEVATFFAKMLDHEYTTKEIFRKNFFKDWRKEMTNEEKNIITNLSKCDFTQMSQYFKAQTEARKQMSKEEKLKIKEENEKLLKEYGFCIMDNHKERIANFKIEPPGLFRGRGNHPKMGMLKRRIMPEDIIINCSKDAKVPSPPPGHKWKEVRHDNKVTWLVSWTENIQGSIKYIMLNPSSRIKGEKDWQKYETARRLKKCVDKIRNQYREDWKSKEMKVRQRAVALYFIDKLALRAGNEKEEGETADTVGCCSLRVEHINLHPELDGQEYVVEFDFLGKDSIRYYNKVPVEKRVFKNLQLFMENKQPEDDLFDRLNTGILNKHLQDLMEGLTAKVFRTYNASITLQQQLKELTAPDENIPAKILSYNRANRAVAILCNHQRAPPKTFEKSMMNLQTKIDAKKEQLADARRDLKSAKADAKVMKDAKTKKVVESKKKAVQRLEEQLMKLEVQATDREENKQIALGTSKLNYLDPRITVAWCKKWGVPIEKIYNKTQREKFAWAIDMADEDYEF
UniProt P02751, residues 32-2477: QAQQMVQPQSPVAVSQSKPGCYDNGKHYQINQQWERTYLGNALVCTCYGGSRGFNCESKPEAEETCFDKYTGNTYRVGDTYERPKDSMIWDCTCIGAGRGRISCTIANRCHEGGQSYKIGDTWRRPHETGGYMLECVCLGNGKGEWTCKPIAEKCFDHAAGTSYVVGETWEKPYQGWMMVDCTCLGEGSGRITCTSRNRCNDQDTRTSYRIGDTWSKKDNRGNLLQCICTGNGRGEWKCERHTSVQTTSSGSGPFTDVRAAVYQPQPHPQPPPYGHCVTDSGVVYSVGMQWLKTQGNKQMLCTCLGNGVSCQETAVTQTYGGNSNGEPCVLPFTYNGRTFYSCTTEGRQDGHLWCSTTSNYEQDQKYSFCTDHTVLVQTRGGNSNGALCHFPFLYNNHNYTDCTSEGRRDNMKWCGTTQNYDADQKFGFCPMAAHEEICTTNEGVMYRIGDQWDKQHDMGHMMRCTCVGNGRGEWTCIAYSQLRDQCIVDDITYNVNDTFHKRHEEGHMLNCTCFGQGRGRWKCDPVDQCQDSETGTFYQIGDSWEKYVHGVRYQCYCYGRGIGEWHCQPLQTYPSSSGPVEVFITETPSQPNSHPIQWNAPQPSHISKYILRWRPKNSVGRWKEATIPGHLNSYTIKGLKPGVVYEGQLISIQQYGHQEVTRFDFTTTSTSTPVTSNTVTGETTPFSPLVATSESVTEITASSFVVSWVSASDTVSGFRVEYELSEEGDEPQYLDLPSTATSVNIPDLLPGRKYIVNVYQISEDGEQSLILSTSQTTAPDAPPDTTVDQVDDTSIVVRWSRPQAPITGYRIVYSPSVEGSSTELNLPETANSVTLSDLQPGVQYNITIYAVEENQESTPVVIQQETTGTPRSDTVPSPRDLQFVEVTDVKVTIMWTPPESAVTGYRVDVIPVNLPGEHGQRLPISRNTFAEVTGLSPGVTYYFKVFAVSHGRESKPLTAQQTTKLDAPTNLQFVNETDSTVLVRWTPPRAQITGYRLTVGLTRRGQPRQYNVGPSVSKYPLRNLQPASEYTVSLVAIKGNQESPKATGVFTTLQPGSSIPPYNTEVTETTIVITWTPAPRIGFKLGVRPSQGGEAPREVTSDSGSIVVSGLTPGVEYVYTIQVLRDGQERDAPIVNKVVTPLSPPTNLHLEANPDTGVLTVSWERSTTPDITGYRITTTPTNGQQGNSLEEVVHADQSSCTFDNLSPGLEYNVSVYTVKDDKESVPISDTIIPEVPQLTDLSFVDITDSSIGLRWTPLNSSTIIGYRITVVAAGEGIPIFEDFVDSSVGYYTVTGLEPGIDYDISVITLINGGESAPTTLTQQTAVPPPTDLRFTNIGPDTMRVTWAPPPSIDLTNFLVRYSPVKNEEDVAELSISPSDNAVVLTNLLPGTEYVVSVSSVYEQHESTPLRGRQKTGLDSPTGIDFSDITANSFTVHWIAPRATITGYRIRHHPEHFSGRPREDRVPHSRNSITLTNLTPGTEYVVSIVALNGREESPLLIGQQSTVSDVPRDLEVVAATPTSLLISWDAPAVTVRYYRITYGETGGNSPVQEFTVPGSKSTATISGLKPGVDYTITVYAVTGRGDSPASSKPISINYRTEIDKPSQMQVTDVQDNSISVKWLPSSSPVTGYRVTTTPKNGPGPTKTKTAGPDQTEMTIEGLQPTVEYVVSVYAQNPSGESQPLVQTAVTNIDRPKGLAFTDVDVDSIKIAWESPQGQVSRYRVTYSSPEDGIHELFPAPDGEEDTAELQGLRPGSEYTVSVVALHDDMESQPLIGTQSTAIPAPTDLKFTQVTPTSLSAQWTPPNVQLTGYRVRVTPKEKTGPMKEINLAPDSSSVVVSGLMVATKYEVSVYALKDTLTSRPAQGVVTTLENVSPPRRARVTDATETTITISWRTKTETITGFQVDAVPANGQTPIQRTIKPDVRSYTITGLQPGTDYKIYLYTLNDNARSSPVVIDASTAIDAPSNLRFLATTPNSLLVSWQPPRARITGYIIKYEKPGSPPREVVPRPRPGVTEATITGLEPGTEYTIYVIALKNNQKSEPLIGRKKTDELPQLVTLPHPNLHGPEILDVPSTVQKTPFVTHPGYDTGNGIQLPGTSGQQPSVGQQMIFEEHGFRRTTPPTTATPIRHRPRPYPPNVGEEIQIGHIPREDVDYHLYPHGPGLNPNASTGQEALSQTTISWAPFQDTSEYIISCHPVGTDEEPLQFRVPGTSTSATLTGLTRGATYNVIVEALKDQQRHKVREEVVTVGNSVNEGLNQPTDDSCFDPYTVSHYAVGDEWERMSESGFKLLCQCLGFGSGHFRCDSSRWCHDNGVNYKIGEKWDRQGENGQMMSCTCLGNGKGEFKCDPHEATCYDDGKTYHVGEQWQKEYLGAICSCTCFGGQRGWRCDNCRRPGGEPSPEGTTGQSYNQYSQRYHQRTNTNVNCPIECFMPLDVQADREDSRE
UniProt Q14315: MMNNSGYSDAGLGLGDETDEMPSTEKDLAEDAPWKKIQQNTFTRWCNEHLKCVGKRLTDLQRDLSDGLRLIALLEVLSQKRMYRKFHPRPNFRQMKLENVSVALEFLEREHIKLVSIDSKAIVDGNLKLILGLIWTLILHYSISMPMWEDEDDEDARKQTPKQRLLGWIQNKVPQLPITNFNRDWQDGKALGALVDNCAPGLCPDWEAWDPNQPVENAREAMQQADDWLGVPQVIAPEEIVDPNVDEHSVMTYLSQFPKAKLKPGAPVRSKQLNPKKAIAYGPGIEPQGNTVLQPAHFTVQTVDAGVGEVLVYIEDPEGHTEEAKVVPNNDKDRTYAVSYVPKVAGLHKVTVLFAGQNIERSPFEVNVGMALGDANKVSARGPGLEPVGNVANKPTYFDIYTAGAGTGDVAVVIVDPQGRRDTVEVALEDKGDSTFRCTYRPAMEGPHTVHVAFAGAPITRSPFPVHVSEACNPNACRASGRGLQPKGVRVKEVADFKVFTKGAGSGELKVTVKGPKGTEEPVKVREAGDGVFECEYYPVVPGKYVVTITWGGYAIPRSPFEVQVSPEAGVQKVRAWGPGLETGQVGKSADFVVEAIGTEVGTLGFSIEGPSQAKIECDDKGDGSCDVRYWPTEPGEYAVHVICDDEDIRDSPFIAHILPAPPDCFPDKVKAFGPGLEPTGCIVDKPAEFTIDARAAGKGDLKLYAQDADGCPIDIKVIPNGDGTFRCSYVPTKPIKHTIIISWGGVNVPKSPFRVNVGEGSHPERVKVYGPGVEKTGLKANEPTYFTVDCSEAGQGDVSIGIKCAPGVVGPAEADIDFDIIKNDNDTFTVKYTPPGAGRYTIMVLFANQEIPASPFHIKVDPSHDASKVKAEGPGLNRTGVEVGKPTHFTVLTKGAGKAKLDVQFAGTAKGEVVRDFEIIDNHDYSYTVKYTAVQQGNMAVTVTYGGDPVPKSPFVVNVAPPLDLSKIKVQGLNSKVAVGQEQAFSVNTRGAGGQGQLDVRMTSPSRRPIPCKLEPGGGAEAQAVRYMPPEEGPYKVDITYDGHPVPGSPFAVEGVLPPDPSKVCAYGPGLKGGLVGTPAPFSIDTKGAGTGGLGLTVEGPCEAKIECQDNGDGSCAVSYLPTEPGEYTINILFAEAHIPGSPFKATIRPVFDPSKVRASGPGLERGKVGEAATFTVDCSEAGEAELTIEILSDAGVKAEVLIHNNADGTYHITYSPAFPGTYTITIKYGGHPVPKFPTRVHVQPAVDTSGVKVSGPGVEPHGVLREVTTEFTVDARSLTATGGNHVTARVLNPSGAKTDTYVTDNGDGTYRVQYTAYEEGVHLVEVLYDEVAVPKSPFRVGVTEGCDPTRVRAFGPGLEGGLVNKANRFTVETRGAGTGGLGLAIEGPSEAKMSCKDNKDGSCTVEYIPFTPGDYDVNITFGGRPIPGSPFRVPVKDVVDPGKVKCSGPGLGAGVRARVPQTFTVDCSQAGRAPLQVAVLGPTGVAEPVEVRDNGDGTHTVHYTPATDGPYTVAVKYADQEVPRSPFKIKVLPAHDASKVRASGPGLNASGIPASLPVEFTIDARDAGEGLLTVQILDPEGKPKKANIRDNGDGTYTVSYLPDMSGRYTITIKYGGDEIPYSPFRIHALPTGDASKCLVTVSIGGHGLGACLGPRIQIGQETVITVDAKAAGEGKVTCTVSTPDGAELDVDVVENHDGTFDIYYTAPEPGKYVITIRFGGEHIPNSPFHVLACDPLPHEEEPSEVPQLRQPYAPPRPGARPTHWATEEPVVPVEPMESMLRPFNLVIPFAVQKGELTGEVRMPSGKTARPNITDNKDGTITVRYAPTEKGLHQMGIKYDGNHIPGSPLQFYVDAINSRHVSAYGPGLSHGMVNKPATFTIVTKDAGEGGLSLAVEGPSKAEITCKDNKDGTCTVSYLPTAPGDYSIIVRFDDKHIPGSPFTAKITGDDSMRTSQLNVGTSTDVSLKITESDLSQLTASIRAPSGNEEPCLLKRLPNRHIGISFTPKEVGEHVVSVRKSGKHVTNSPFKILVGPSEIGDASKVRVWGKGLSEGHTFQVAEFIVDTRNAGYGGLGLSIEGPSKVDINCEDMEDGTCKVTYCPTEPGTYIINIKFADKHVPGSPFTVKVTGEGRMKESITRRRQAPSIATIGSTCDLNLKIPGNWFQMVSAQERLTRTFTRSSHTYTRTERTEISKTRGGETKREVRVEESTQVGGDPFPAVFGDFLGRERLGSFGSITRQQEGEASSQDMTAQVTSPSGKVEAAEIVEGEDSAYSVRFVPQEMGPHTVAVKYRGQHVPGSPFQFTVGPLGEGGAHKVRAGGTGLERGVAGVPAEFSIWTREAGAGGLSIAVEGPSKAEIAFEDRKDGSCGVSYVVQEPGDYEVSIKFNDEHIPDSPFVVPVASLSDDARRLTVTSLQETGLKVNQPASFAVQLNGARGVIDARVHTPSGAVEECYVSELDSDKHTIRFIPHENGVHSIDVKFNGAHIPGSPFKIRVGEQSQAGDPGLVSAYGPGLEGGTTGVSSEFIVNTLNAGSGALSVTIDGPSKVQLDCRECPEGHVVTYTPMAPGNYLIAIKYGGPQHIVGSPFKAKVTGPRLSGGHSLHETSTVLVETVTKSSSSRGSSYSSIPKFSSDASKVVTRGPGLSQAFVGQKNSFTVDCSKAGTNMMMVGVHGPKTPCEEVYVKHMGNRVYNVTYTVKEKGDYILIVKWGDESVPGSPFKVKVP

Legend:
[1] = biological target: EDN1 (human) (UniProt P05305); experiment: affinity purification with mass spectrometry; IP of the index protein (antibody to the endogenous bait vs isotype IgG, or anti-FLAG M2 beads for the 3xFLAG-tagged bait vs mock transfection) from HCASMC (SMC) lysate, overnight at 4 °C; iTRAQ or TMT LC-MS/MS; interactor: log2 FC >0 and FDR ≤0.1
[2] = biological target: EDN1 (human) (UniProt P05305); experiment: affinity purification with mass spectrometry; IP of the index protein from HAEC or HCASMC lysate; the sentence does not tell in which of the two cell types the interactor was found; interactor: log2 FC >0 and FDR ≤0.1
[3] = biological target: T1, PLPP3 (human) (UniProt O14495); experiment: affinity purification with mass spectrometry; IP of the index protein (antibody to the endogenous bait vs isotype IgG, or anti-FLAG M2 beads for the 3xFLAG-tagged bait vs mock transfection) from HCASMC (SMC) lysate, overnight at 4 °C; iTRAQ or TMT LC-MS/MS; interactor: log2 FC >0 and FDR ≤0.1
T1 sequence: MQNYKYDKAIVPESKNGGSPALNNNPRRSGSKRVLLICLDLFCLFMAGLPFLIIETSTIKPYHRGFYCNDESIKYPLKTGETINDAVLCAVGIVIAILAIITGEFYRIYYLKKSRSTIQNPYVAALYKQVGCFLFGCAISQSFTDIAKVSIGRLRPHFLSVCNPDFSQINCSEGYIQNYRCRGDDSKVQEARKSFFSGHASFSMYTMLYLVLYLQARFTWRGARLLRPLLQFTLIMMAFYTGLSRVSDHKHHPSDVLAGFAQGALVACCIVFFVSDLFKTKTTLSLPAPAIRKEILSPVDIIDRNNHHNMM

[4] = biological target: T1, PLPP3 (human); experiment: affinity purification with mass spectrometry; IP of the index protein (antibody to the endogenous bait vs isotype IgG, or anti-FLAG M2 beads for the 3xFLAG-tagged bait vs mock transfection) from HAEC (EC) lysate, overnight at 4 °C; iTRAQ or TMT LC-MS/MS; interactor: log2 FC >0 and FDR ≤0.1
[5] = biological target: T2, JCAD (human (endogenous in HAEC and HCASMC)) (UniProt Q9P266); experiment: as above
T2 sequence: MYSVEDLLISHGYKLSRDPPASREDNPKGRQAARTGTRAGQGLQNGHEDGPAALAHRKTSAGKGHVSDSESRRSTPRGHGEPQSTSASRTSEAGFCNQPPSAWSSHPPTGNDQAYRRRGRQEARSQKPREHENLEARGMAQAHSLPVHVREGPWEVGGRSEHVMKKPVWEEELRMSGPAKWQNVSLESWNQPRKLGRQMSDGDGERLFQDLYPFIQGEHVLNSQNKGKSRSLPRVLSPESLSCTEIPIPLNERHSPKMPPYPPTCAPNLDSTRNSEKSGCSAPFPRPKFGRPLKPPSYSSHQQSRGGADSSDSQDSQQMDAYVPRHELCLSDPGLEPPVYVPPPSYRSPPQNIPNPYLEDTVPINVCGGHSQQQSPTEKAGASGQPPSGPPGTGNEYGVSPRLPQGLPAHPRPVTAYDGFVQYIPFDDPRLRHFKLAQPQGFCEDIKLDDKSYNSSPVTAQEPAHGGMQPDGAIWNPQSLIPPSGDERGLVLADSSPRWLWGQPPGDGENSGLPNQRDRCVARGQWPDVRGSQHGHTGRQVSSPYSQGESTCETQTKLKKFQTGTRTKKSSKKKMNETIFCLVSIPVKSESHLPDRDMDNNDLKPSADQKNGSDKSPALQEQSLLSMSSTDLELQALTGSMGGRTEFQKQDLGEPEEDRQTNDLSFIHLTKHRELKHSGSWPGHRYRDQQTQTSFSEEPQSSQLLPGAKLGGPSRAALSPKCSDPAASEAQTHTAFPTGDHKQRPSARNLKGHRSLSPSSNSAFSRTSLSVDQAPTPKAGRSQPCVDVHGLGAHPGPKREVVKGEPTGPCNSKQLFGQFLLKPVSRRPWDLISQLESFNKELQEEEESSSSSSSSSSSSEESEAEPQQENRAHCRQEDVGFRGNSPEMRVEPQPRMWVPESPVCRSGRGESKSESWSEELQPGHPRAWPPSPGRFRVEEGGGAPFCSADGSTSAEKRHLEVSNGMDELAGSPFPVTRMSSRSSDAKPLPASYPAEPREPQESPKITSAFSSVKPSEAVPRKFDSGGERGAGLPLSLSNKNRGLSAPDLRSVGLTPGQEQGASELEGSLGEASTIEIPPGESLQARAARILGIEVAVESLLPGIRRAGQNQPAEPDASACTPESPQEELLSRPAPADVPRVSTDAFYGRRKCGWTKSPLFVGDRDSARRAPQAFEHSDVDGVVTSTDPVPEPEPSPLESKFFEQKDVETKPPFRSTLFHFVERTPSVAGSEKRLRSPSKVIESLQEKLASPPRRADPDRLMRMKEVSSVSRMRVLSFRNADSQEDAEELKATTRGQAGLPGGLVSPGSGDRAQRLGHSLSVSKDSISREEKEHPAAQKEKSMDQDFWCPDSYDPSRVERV

binding [1]	binding [2]	Substance	also measured
binds		LOX (from UniProt P28300)	
	binds	TOP1 (from UniProt P11387 1-765)	
binds		FN1 (from UniProt P02751 32-2477)	binding [3]: binds; binding [4]: binds
	binds	MAP4 (from UniProt P27816 1-1152)	
		FLNC (from UniProt Q14315 1-2725)	binding [5]: binds
